We go through two substances from article PMC11069146.

Protein sequences, listed by entry. Tags and fused reporters are not part of them.
UniProt Q93009: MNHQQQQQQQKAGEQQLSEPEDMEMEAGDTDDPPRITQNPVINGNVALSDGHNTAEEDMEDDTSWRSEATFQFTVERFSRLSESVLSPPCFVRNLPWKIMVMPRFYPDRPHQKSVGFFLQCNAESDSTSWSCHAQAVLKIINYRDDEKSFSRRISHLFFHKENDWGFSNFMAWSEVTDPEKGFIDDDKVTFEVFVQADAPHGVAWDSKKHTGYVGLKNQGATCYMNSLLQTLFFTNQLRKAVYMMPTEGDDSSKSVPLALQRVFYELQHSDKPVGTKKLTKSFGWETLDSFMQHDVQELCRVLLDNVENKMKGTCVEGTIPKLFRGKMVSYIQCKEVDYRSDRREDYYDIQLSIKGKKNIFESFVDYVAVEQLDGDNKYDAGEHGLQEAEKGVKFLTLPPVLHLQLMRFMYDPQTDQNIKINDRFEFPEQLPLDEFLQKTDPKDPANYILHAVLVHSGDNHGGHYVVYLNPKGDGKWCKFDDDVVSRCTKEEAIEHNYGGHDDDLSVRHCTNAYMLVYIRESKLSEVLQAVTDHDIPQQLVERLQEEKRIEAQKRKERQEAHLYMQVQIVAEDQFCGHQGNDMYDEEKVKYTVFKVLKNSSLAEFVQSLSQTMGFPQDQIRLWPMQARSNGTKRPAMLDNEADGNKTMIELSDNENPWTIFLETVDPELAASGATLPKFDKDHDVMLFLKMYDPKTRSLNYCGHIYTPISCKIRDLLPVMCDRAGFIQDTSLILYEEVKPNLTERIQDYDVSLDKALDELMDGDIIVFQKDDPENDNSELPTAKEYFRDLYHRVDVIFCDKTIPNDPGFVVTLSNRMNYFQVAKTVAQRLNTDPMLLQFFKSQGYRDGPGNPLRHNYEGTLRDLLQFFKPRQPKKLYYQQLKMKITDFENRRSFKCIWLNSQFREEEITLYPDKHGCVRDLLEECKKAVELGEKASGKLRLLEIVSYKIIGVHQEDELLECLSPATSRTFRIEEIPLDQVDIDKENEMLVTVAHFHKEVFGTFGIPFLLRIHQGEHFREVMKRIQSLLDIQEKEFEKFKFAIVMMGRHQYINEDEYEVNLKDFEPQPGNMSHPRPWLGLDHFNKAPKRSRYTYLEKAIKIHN
UniProt P19474: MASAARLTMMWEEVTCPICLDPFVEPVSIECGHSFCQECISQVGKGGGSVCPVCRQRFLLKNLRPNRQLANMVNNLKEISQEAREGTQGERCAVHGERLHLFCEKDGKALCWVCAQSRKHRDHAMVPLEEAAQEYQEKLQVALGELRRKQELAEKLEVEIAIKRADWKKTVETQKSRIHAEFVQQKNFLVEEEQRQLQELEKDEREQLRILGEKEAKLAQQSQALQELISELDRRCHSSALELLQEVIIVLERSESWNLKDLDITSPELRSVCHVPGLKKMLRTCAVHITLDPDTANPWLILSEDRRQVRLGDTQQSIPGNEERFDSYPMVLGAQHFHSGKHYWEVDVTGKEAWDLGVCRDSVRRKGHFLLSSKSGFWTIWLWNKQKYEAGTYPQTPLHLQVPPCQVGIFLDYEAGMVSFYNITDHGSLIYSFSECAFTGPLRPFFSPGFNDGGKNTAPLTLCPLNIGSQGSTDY

Test [1] addresses T1, SNAI2 (human (endogenous in RD and A204)) (UniProt O43623).
T1 sequence: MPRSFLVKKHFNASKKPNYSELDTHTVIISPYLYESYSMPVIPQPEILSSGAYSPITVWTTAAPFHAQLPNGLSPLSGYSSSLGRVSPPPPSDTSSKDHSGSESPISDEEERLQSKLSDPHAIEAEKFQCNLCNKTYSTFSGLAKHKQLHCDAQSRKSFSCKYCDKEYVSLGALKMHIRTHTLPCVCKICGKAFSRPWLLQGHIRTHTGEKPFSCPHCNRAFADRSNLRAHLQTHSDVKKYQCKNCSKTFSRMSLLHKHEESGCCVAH
The experiment in a line: co-IP; non-denaturing lysis buffer with protease inhibitors; lysate on protein A/G agarose beads pre-coupled with antibody, 4 °C for 4 h; western blot; RD and A204 cells (Fig. 4A), RD cells (Fig. 6C, D, reciprocal).

Test [2] deals with Ubiquitin-specific protease 7 (human (endogenous in RD and A204)) (UniProt Q93009). The test is described as above.

Results are given in words; binding and its absence hold for the method and conditions named. Binding seen in cells or lysates may run through a third protein. Some results given as binding are weak or reduced against the parent protein; the word gives no strength.

Regarding “Ubiquitin-specific protease 7 (from UniProt Q93009 1-1102) (enzyme)”, the binding result in test [1] is “binds”.
With “E3 ubiquitin ligase TRIM21 (from UniProt P19474 1-475) (enzyme)”, the binding result in test [2] and in test [1] was “binds” each time.
